# Test results: US20250115634A1, “LIGAND, METHOD FOR PREPARING SAME, AND USE THEREOF” (priority 2022, published 2025)
# At least one compound was matched to its structure with a doubt left.
# Target: T1, ASGPR receptor (Mus musculus, UniProt P24721+P34927)
# T1 construct: C57 mouse primary liver cells were isolated; endogenous in cells; host or cells: C57 mouse primary liver cells
# T1 sequence (P34927 1-284): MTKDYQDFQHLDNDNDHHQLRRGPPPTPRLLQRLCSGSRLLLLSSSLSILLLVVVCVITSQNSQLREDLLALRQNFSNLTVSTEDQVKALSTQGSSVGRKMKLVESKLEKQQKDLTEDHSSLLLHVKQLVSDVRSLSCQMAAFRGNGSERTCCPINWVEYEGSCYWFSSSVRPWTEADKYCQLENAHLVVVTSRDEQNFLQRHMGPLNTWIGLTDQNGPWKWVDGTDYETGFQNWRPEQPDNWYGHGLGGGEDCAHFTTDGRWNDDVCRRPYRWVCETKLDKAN
# T1 sequence (P24721 1-301): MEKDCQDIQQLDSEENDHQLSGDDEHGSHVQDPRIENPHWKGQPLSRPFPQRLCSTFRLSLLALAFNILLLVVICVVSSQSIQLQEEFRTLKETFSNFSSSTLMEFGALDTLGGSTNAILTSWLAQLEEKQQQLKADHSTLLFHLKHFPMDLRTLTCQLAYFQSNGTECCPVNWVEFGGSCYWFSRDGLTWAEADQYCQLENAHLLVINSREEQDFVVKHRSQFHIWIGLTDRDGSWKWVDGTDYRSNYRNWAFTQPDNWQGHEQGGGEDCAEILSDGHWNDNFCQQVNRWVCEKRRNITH
# Experiment: Binding of Cy5-labelled ligands to ASGPR on primary mouse liver cells (Kd)
# Conditions: C57 mouse primary liver cells, incubated 37° C. in the dark for 30 min, trypsin to remove surface fluorescence
# Description: The binding rate of the ligand of the present disclosure to the ASGPR receptor of liver cancer cells was tested, with the ligand with hepatocellular ASGPR-targeting property, loaded in Inclisiran, a small interfering nucleic acid drug marketed by Alnylam, as a positive control (PC).
# The ligand-receptor dissociation constant (Kd, which is the drug concentration required for half of the maximum effect, i.e. 50% of the receptors are occupied) was used as a measure of ligand-receptor binding capacity; and the lower the Kd value, the higher the binding capacity.
# C57 mouse primary liver cells were isolated, and the cells were in a good state, had viability of 92%, and were at a density of 2×10^5 cells/400 μL.
# The test compounds were dissolved with PBS and then diluted with complete medium for primary liver cells to various concentration gradients.
# The cells was added with 100 μL of the test compound solution prepared according to the set concentration gradients (the test compounds was first prepared with PBS into a stock solution, which was then diluted to the set concentration gradients with complete medium) and incubated at 37° C. in the dark for 30 min.
# After incubation, the cells were washed once with 500 μL of PBS.
# The cells were added with typsin to remove fluorescence on the cell surface.
# The cells were washed again with 500 μL of PBS and detected on machine.
row,SMILES,Kd [pM]
1,CC[N+]1=C(/C=C/C=C/C=C2/N(CCCCCC(=O)NCCNC(=O)CCCCCCCCCCC(=O)N[C@@H](COCC(=O)NCCOCCO[C@@H]3O[C@H](CO)[C@H](O)[C@H](O)[C@H]3NC(C)=O)C(=O)NC(COCCC(=O)NCCOCCO[C@@H]3O[C@H](CO)[C@H](O)[C@H](O)[C@H]3NC(C)=O)COCCC(=O)NCCOCCO[C@@H]3O[C@H](CO)[C@H](O)[C@H](O)[C@H]3NC(C)=O)c3ccccc3C2(C)C)C(C)(C)c2ccccc21 [TC01A-Cy5],908
2,CC[N+]1=C(/C=C/C=C/C=C2/N(CCCCCC(=O)NCCNC(=O)CCCCCCCCCCC(=O)N[C@@H](COCC(=O)NCCOCCOCCO[C@@H]3O[C@H](CO)[C@H](O)[C@H](O)[C@H]3NC(C)=O)C(=O)NC(COCCC(=O)NCCOCCOCCO[C@@H]3O[C@H](CO)[C@H](O)[C@H](O)[C@H]3NC(C)=O)COCCC(=O)NCCOCCOCCO[C@@H]3O[C@H](CO)[C@H](O)[C@H](O)[C@H]3NC(C)=O)c3ccccc3C2(C)C)C(C)(C)c2ccccc21 [TC07A-Cy5],764
3,CC[N+]1=C(/C=C/C=C/C=C2/N(CCCCCC(=O)NCCNC(=O)CCCCCCCCCCC(=O)N3C[C@H](OCC(=O)NCCOCCO[C@@H]4O[C@H](CO)[C@H](O)[C@H](O)[C@H]4NC(C)=O)C[C@H]3C(=O)NC(COCCC(=O)NCCOCCO[C@@H]3O[C@H](CO)[C@H](O)[C@H](O)[C@H]3NC(C)=O)COCCC(=O)NCCOCCO[C@@H]3O[C@H](CO)[C@H](O)[C@H](O)[C@H]3NC(C)=O)c3ccccc3C2(C)C)C(C)(C)c2ccccc21 [TC09A-Cy5],831
4,CC[N+]1=C(/C=C/C=C/C=C2/N(CCCCCC(=O)NCCNC(=O)CCNC(=O)[C@H](CNC(=O)C(C)(COCC(=O)NCCOCCOCCO[C@@H]3O[C@H](CO)[C@H](O)[C@H](O)[C@H]3NC(C)=O)COCC(=O)NCCOCCOCCO[C@@H]3O[C@H](CO)[C@H](O)[C@H](O)[C@H]3NC(C)=O)NC(=O)C(C)(COCC(=O)NCCOCCOCCO[C@@H]3O[C@H](CO)[C@H](O)[C@H](O)[C@H]3NC(C)=O)COCC(=O)NCCOCCOCCO[C@@H]3O[C@H](CO)[C@H](O)[C@H](O)[C@H]3NC(C)=O)c3ccccc3C2(C)C)C(C)(C)c2ccccc21 [TEC14A-Cy5],333
